Drawing on paper PMC5681774, this text covers binding for four molecules.

Sequences of proteins named here, by UniProt entry; tags and fusion partners are left off. A change or cut given only in a name is not applied to a line headed by its entry. Residues count along the entry.
UniProt P42227: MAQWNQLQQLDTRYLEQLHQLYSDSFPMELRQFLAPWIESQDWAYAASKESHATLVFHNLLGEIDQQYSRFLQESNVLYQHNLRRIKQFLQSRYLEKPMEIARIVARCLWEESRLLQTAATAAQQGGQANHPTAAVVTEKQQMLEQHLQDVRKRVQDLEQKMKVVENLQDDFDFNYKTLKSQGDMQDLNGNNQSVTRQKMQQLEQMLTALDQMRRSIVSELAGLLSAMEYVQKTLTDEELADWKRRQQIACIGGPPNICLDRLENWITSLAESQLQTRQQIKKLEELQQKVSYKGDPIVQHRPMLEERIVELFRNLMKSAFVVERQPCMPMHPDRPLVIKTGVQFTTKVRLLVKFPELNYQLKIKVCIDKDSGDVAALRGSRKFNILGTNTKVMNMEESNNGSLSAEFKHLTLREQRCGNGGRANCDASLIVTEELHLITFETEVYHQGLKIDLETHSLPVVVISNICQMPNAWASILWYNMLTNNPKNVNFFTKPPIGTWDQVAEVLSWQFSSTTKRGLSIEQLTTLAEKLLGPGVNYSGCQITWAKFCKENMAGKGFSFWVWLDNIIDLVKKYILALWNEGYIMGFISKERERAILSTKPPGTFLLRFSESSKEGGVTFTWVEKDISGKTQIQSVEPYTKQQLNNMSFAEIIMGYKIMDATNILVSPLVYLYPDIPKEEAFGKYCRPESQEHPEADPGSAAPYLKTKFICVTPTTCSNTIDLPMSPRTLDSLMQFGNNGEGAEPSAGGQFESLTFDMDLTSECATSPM
UniProt Q8C2B3: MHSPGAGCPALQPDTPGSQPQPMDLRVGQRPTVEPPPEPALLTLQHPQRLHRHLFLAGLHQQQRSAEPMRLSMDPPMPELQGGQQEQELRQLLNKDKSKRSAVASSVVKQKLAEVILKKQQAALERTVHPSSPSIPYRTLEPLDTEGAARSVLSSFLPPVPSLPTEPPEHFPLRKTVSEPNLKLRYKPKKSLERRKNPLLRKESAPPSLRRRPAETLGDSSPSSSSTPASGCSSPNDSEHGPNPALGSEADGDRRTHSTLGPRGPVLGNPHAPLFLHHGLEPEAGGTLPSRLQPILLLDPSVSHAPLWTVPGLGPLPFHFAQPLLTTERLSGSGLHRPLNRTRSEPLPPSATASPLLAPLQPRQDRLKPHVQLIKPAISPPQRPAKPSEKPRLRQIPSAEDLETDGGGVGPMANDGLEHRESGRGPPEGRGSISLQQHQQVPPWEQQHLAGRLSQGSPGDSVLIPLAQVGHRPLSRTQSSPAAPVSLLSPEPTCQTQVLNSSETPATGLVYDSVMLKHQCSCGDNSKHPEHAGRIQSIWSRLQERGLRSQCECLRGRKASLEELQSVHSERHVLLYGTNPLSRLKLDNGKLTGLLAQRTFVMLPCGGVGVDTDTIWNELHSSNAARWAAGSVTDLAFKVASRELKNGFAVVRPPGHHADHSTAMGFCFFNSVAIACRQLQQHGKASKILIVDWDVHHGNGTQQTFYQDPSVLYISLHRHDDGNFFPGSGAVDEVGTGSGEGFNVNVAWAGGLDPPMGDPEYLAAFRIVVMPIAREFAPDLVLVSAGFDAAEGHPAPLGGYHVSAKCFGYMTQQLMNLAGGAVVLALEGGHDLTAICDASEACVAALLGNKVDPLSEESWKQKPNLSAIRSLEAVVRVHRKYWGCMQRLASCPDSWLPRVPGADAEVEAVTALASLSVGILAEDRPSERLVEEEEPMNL
GST-Hdac7(aa445–938): residues 445-938 of Q8C2B3
UniProt P40763: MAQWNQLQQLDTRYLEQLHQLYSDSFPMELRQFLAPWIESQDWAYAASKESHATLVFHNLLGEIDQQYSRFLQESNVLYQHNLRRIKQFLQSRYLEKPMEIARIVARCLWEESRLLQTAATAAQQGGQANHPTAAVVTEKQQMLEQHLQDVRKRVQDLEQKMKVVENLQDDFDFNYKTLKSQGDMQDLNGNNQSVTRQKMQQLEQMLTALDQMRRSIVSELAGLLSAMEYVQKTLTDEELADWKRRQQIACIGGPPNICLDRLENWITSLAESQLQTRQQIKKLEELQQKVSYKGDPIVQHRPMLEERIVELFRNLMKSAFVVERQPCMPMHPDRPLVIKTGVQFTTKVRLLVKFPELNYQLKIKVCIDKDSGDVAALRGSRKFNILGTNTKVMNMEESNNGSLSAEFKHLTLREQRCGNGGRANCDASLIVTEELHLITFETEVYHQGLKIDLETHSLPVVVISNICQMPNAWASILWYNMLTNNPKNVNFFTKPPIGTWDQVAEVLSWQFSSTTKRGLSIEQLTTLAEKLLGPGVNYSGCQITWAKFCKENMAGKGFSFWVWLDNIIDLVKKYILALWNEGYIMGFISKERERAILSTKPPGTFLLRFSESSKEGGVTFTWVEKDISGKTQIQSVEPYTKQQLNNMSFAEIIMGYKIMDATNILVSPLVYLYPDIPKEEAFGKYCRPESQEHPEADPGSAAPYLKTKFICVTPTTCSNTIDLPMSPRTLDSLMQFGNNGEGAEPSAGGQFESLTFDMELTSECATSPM

Experiment [1] deals with Flag-tagged Stat3 (mouse) (UniProt P42227). Nature of the experiment: co-IP; exogenous mouse proteins expressed in 293T cells; reciprocal immunoprecipitation and Western blot. For orientation: Immunoblotting shows a protein as a band on a membrane.
The target of experiment [2] is GST-Hdac7(aa445–938) (mouse) (UniProt Q8C2B3). Nature of the experiment: pull-down; GST pull-down of affinity-purified proteins incubated in Nonidet P-40 lysis buffer for 1.5 h, washed three times with PBS, Western blot with anti-Hdac7 and anti-Stat3; both purified.
Experiment [3] has as its target exogenous mouse Hdac7 expressed in 293T cells (mouse) (UniProt Q8C2B3). Nature of the experiment: co-IP; exogenous mouse proteins expressed in 293T cells; reciprocal immunoprecipitation and Western blot.
Experiment [4] addresses Stat3, endogenous mouse protein (mouse (endogenous in lung tumors of K-Ras mice)) (UniProt P42227). Description: co-IP; endogenous proteins in lung tumors from control K-Ras mice; immunoprecipitation and Western blot.
For experiment [5], the target named is STAT3 (signal transducer and activator of transcription 3), endogenous human protein (human (endogenous in H1299)) (UniProt P40763). Description: co-IP; endogenous proteins in H1299 human lung cancer cells; immunoprecipitation and Western blot.

No constants are given. Whether binding was seen depends on the method and setting. For some assays here: Binding seen in cells or lysates may run through a third protein. Some entries that bind do so weakly or less than the wild type. For some assays here: Sequences can lack the tags named with a protein.

Take “exogenous mouse Hdac7 expressed in 293T cells (from UniProt Q8C2B3-1 1-938)”: the binding result in experiment [1] was “binds”.

For “Flag-tagged Stat3 (from UniProt P42227 1-770)”, the binding entry in experiment [2] and in experiment [3] was “binds” in each case.

As to “Hdac7, endogenous mouse protein (from UniProt Q8C2B3-1 1-938)”, the binding entry in experiment [4] is listed as “binds”.

B1: HDAC7 (histone deacetylase 7), endogenous human protein (protein, UniProt Q8WUI4 1-952)
chain: MDLRVGQRPPVEPPPEPTLLALQRPQRLHHHLFLAGLQQQRSVEPMRLSMDTPMPELQVGPQEQELRQLLHKDKSKRSAVASSVVKQKLAEVILKKQQAALERTVHPNSPGIPYRTLEPLETEGATRSMLSSFLPPVPSLPSDPPEHFPLRKTVSEPNLKLRYKPKKSLERRKNPLLRKESAPPSLRRRPAETLGDSSPSSSSTPASGCSSPNDSEHGPNPILGSEALLGQRLRLQETSVAPFALPTVSLLPAITLGLPAPARADSDRRTHPTLGPRGPILGSPHTPLFLPHGLEPEAGGTLPSRLQPILLLDPSGSHAPLLTVPGLGPLPFHFAQSLMTTERLSGSGLHWPLSRTRSEPLPPSATAPPPPGPMQPRLEQLKTHVQVIKRSAKPSEKPRLRQIPSAEDLETDGGGPGQVVDDGLEHRELGHGQPEARGPAPLQQHPQVLLWEQQRLAGRLPRGSTGDTVLLPLAQGGHRPLSRAQSSPAAPASLSAPEPASQARVLSSSETPARTLPFTTGLIYDSVMLKHQCSCGDNSRHPEHAGRIQSIWSRLQERGLRSQCECLRGRKASLEELQSVHSERHVLLYGTNPLSRLKLDNGKLAGLLAQRMFVMLPCGGVGVDTDTIWNELHSSNAARWAAGSVTDLAFKVASRELKNGFAVVRPPGHHADHSTAMGFCFFNSVAIACRQLQQQSKASKILIVDWDVHHGNGTQQTFYQDPSVLYISLHRHDDGNFFPGSGAVDEVGAGSGEGFNVNVAWAGGLDPPMGDPEYLAAFRIVVMPIAREFSPDLVLVSAGFDAAEGHPAPLGGYHVSAKCFGYMTQQLMNLAGGAVVLALEGGHDLTAICDASEACVAALLGNRVDPLSEEGWKQKPNLNAIRSLEAVIRVHSKYWGCMQRLASCPDSWVPRVPGADKEEVEAVTALASLSVGILAEDRPSEQLVEEEEPMNL
Turning to B1, in experiment [5], the binding entry is “binds”.
